# Source: US20160264674A1 (ADURO BIOTECH HOLDINGS EUROPE B V, published 2016)
# Results are given in words; binding and its absence hold for the method and conditions named. Some entries that bind do so weakly or less than the wild type.
# T1: FLAG-tagged human APRIL (human, UniProt O75888 105-250, limits assumed)
# T1 construct: also called FLAG-tagged APRIL; FLAG-APRIL; not shown: FLAG tag
# T1 sequence (looked up): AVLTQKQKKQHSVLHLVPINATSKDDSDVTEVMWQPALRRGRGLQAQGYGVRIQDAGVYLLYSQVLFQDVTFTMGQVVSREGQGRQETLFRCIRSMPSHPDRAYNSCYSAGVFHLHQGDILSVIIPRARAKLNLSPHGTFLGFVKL
# Legend:
# FLAG-tagged human APRIL [1] = target: T1, FLAG-tagged human APRIL; test: ELISA on FLAG-tagged human APRIL
# FLAG-tagged human APRIL [2] = target: T1, FLAG-tagged human APRIL; test: APRIL ELISA and BCMA-Fc competition ELISA
binding (FLAG-tagged human APRIL [1]),binding (FLAG-tagged human APRIL [2]),Binder
binds,,"VH14.VL15 (antibody, human IgG4 S228P, kappa, V domains shown, Humanized IgG4 (S241P, Kabat) with human kappa, from HEK293T) VH: QVQLVQSGAEVKKPGASVKVSCKASGYTFTSYVMHWVRQAPGQGLEWMGYINPYNDAPKYNEKFKGRVTMTRDTSASTAYMELSSLRSDDTAVYYCARGLGYALYYAMDYWGQGTTVTVSS VL: DIVMTQSPSTLSASVGDRVTITCKASQNVGNNVAWYQQKPGKAPKLLISSASNRDSGVPSRFSGSGSGTEFTLTISSLQPDDFATYFCQQYNIYPFTFGQGTKLEIKR"
,binds,"VH14_1.VL15 (antibody, human IgG4, V domains shown, VH14 with R72S; rest is human IgG4 (S241P, Kabat) and human kappa; also called 14_1.15; antibody 14_1.15) VH: QVQLVQSGAEVKKPGASVKVSCKASGYTFTSYVMHWVRQAPGQGLEWMGYINPYNDAPKYNEKFKGRVTMTSDTSASTAYMELSSLRSDDTAVYYCARGLGYALYYAMDYWGQGTTVTVSS VL: DIVMTQSPSTLSASVGDRVTITCKASQNVGNNVAWYQQKPGKAPKLLISSASNRDSGVPSRFSGSGSGTEFTLTISSLQPDDFATYFCQQYNIYPFTFGQGTKLEIK"
,binds,"VH14_1G.VL15 (antibody, human IgG4 S228P, kappa, V domains shown, VH14_1 with R67K and V68A; Humanized IgG4 (S241P, Kabat) with human kappa; also called 14_1G.15; 14_1 G.15) VH: QVQLVQSGAEVKKPGASVKVSCKASGYTFTSYVMHWVRQAPGQGLEWMGYINPYNDAPKYNEKFKGKATMTSDTSASTAYMELSSLRSDDTAVYYCARGLGYALYYAMDYWGQGTTVTVSS VL: DIVMTQSPSTLSASVGDRVTITCKASQNVGNNVAWYQQKPGKAPKLLISSASNRDSGVPSRFSGSGSGTEFTLTISSLQPDDFATYFCQQYNIYPFTFGQGTKLEIKR"
binds,,"VH11.VL15 (antibody, human IgG4 S228P, kappa, V domains shown, Humanized IgG4 (S241P, Kabat) with human kappa, from HEK293T; also called 11.15) VH: QVQLVQSGAEVKKPGASVKVSCKASGYTFTSYVMHWVRQAPGQRLEWMGYINPYNDAPKYNEKFKGRVTITRDTSASTAYMELSSLRSEDTAVYYCARGLGYALYYAMDYWGQGTTVTVSS VL: DIVMTQSPSTLSASVGDRVTITCKASQNVGNNVAWYQQKPGKAPKLLISSASNRDSGVPSRFSGSGSGTEFTLTISSLQPDDFATYFCQQYNIYPFTFGQGTKLEIKR"
binds,,"VH13.VL15 (antibody, human IgG4 S228P, kappa, V domains shown, Humanized IgG4 (S241P, Kabat) with human kappa, from HEK293T; also called 13.15) VH: QVQLVQSGAEVKKPGASVKVSCKASGYTFTSYVMHWVRQAPGQGLEWMGYINPYNDAPKYNEKFKGRVTMTRDTSTSTVYMELSSLRSEDTAVYYCARGLGYALYYAMDYWGQGTMVTVSS VL: DIVMTQSPSTLSASVGDRVTITCKASQNVGNNVAWYQQKPGKAPKLLISSASNRDSGVPSRFSGSGSGTEFTLTISSLQPDDFATYFCQQYNIYPFTFGQGTKLEIKR"
binds,,"VH12.VL15 (antibody, human IgG4 S228P, kappa, V domains shown, Humanized IgG4 (S241P, Kabat) with human kappa, from HEK293T; also called 12.15) VH: QVQLVQSGAEVKKPGASVKVSCKASGYTFTSYVMHWVRQAPGQGLEWMGYINPYNDAPKYNEKFKGRVTMTRDTSISTAYMELSRLRSDDTAVYYCARGLGYALYYAMDYWGQGTTVTVSS VL: DIVMTQSPSTLSASVGDRVTITCKASQNVGNNVAWYQQKPGKAPKLLISSASNRDSGVPSRFSGSGSGTEFTLTISSLQPDDFATYFCQQYNIYPFTFGQGTKLEIKR"
